Assay: Differential scanning calorimetry (DSC) of photopolymerization
Details: polymerization enthalpy determined at 37° C.; composition with stabilizer, 0.3 wt.-% CQ, 0.4 wt.-% DMABE; 100 mW/cm^2
Procedure: Both ΔH and tmax were determined for a composition respectively containing a compound of formula (Ib), (Ic) or comparative compounds (C1), (C2) or (C3), 0.22 to 0.35 mol-% stabilizer, 0.3 wt.-% camphor quinone (CQ) as photosensitizer, and 0.4 wt.-% 4-(dimethylamino) benzoic acid ethylester (DMABE) as coinitiator. For compound of formula (C1), no ΔH and no tmax was detected (indicated by “*”)
For DSC experiments, compositions containing compound of formula (Ib), (Ic), (C1), (C2) or (C3), 0.22 to 0.35 mol-% of a stabilizer, 0.3 wt.-% camphor quinone (CQ) as photosensitizer and 0.4 wt.-% 4-(dimethylamino) benzoic acid ethylester (DMABE) as coinitiator were provided. In these compositions, the indication mol-% is based on the molar amount of compound of formula (Ib), (Ic), (C1), (C2) or (C3), and the indication wt.-% is based on the total weight of the composition, wherein the remaining mass/weight of the composition is made up of compound of formula (Ib), (Ic), (C1), (C2) or (C3). The compositions were irradiated at 37° C. with SmartLite Focus LED curing light from Dentsply with an Intensity of 100 mW/cm^2, and DSC was carried out with the apparatus Perkin Elmer DSC 7/DPA 7.

SMILES | ΔHØ ± standard deviation
C=CCN(CCCCN(CC=C)C(=O)C=C)C(=O)C=C [(C2), N,N′-Bisacryloyl-N,N′-bisallyl-1,4-butandiamine, reference compound] | −62.35
C=CC(=O)N(CCC)CCCCN(CCC)C(=O)C=C [(C3), N,N′-Bisacryloyl-N,N′-bispropyl-1,4-butandiamine, reference compound] | −34.70
C=CCN(C/C=C/CN(CC=C)C(=O)C=C)C(=O)C=C [(Ia)] | −152.905
C=CC(=O)N(C/C=C/CN(CCC)C(=O)C=C)CCC [(Ic), N,N′-Bisacryloyl-N,N′-bispropyl-1,4-but-2-endiamine] | −97.345
C=CCN(C/C=C/C(C)N(CC=C)C(=O)C=C)C(=O)C=C (centres unmarked) [Compound (Ib)] | −136.79
